The text below walks through data of PubChem BioAssay AID2685 (National Center for Advancing Translational Sciences (NCATS), 2010).

Some of the results follow. Further columns of the screen follow, without active or inactive calls. The list favours compounds with an active or inconclusive main result. Words in brackets tell the shape of the fitted curve; partial curves, single points and poor fits give uncertain potencies.

A short description of this assay: qHTS Assay for Lipid Storage Modulators in Drosophila S3 Cells.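 On cell number change: cells counted by Cell Tracker Red CMTPX staining in the red channel.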 Particulars: BODIPY lipid droplet fluorescence, 18-24 h; for cell number change: measured here: cell count max response, cells fed with added oleic acid. The method in brief: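 Laser-scanning cytometry quantifies lipid droplet accumulation (500–530 nm total intensity; droplet/cell object ratio) in oleic acid-fed (400 uM added) Drosophila S3 cells treated with a concentration series. 20 uM Triacsin C defined 100% inhibition.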
On the technique in general: In qHTS, concentration-response curves come from the screen itself.

The mark [1] stands for this setting: measured here: cell number channel AC50, cells fed with added oleic acid.
Setting [2] is: measured here: lipid fluorescence (Fed channel) AC50, cells fed with added oleic acid.

What is called AC50 is the concentration giving half of the maximal activity seen. Higher therefore signals activity only at high concentration. For the compound `CCOC(=O)CNc1nc(C(C)(C)C)nc2c1nnn2Cc1ccccc1Cl`, the cell number change was -30.9%. The AC50 under setting [1] is 8.2 µM [falling, partial curve, poor fit].

Take `O=C1c2ccc3c4c(ccc(c24)C(=O)N1Cc1cccnc1)C(=O)N(Cc1cccnc1)C3=O`: under setting [2], the AC50 is 6.51 µM [falling, single point].

On to `Cc1nonc1NC(=O)c1oc2ccc(F)cc2c1C`, for which the cell number change was -22.4%. The half-maximal activity concentration (AC50) under setting [1] is 7.31 µM [falling, partial curve, poor fit]. Besides, under setting [2], the concentration at half-maximal activity (AC50) was 0.58 µM [rising, single point].

Regarding `Fc1ccc(NC(=S)Nc2ccc(F)c(Cl)c2)cc1Cl`, the cell number change is -75.4%. Under setting [1], the AC50 is 2.06 µM [falling, partial curve].

On to `CC(C)(C)OC(=O)N[C@@H](COCc1ccccc1)C(=O)N[C@@H](CO)[C@H](O)[C@@H]1C[C@@H]1C(=O)N1CCCC1`, for which the cell number change was determined as 29.1%.

`CCC(=O)Nc1nnc(S(=O)(=O)N2CCCCCC2)s1`: the cell number change amounted to 18.9%. Moreover, under setting [2], the AC50 was 0.0231 µM [rising, full curve, poor fit].

As for `COc1ccc(C2SCC(=O)N2c2ccc(F)cc2)cc1` (stereo not drawn), the cell number change is 15%.

As for `N#Cc1nc(-c2ccc(Cl)cc2)oc1NCCc1ccccn1`, the cell number change amounted to 56.1%. Under setting [1], the half-maximal activity concentration (AC50) was 18.4 µM [rising, single point]. Besides, the half-maximal activity concentration (AC50) under setting [2] is 29.1 µM [rising, single point].

Regarding `CCCCOc1cccc(C(=O)Nc2ccc(NC(=O)c3cccs3)cc2)c1`, the cell number change is -21.9%. The AC50 under setting [1] was 0.164 µM [falling, full curve, poor fit].

As to `CN(C)/N=C/c1cc(Cl)cc([N+](=O)[O-])c1O`, the cell number change stood at 22.7%. Besides, the half-maximal activity concentration (AC50) under setting [1] is 0.184 µM [rising, full curve]. Under setting [2], the AC50 was 32.6 µM [rising, single point].

In the case of `O=C(O)c1ccc(S(=O)(=O)N2CCOCC2)o1`, the concentration at half-maximal activity (AC50) under setting [2] is 0.58 µM [rising, single point].

On to `O=C(O)c1ncc(-c2ccccc2)cn1`, for which the cell number change came out at 6.54%. Besides, the concentration at half-maximal activity (AC50) under setting [1] was 6.51 µM [falling, single point].

For `Cc1ccccc1NC(=O)Cc1nc(COC(=O)CCOc2ccccc2)cs1`, the cell number change was -6.63%. Besides, the AC50 under setting [2] was 0.58 µM [rising, single point].

`O=C(NCCNC(=O)c1cc(Cl)ccc1Cl)c1ccccn1`: the cell number change was -21.1%.

`O=C(Nc1ccc(S(=O)(=O)N2CCc3ccccc3C2)cc1)c1ccccc1`: the cell number change turned out to be 35.8%. Under setting [2], the AC50 is 0.92 µM [rising, full curve, poor fit].

On to `Cc1nn(CCC(=O)O)c(C)c1C`, for which the cell number change was -33.9%. The AC50 under setting [1] was 0.116 µM [falling, full curve]. Moreover, the AC50 under setting [2] is 25.9 µM [falling, partial curve].

For `Cc1ccccc1C(=O)c1cccn1CC(=O)NC(C)c1ccccc1` (stereo not drawn), the cell number change is -37.4%.

For `O=C(CSc1nnc(-c2ccncc2)o1)Nc1ccc(F)c(F)c1`, the cell number change was -13.9%. Also, the half-maximal activity concentration (AC50) under setting [2] was 0.731 µM [falling, full curve, poor fit].

With `COc1cnc(-c2ccccn2)nc1Sc1ccccc1`, the concentration at half-maximal activity (AC50) under setting [2] was 0.00411 µM [rising, full curve, poor fit].

For the compound `CSc1cccc(NC(=O)/C=C/c2ccc(Cl)cc2)c1`, the cell number change is -26.8%. Moreover, the AC50 under setting [2] is 25.9 µM [falling, partial curve].

As to `COc1ccc(C(=O)CSc2nnc(-c3cccs3)n2-c2ccccc2)cc1`, the AC50 under setting [2] is 0.092 µM [rising, full curve, poor fit].

Turning to `O=C(Nc1ccccc1Br)C1CCN(C(=O)Cc2ccccc2)CC1`, the cell number change turned out to be 1.76%.

Consider `Cc1ccc(NC(=O)c2ccco2)c([N+](=O)[O-])c1`, for which the cell number change stood at 11.8%.

For `O=C(NC(=S)Nc1cccnc1Cl)c1ccc(F)cc1`, the cell number change was -11.1%. The concentration at half-maximal activity (AC50) under setting [2] was 25.9 µM [rising, single point].

With `Cc1nc(N)nc(Cl)c1Cc1ccc(Cl)cc1`, the cell number change is 56.6%. Also, under setting [1], the half-maximal activity concentration (AC50) is 0.58 µM [rising, full curve, poor fit].

Take `O=[N+]([O-])c1cc(S(=O)(=O)C(F)(F)F)ccc1NCC1CCCO1` (stereo not drawn): the cell number change was -5.71%. The concentration at half-maximal activity (AC50) under setting [2] is 6.51 µM [rising, single point].

Take `Cc1ccccc1C(=O)N/N=C/c1ccc(OCC(=O)N2CCCCC2)cc1`: the cell number change was 14%. Also, the AC50 under setting [2] was 6.51 µM [falling, single point].

Consider `CCOc1ccc(-c2nnn(CC(=O)Nc3cccc(OC)c3)n2)cc1OCC`, for which, under setting [2], the AC50 was 6.51 µM [rising, single point].

Regarding `O=C(C1CCCN(S(=O)(=O)c2cccs2)C1)N1CCC(N2CCCCC2)CC1` (stereo not drawn), the cell number change is -24.3%. Moreover, under setting [2], the AC50 was 16.4 µM [falling, partial curve, poor fit].

For the compound `C#C[C@]1(OC(C)=O)CCC2C3CCC4=CC(=O)CC[C@@H]4C3CC[C@@]21C` (stereo partly drawn), the cell number change is -29.7%. For the same compound, the half-maximal activity concentration (AC50) under setting [2] was 23.1 µM [falling, partial curve, poor fit].

For `COc1ccccc1NC(=O)c1ccc(Cl)c(S(=O)(=O)N2CCCCC2)c1`, the cell number change is 35.3%. For the same compound, the AC50 under setting [1] is 11.6 µM [rising, partial curve].

As to `O=C(Cc1ccc(Cl)cc1)NNC(=O)c1cnccn1`, the cell number change worked out at 40.9%. Under setting [1], the concentration at half-maximal activity (AC50) was 29.1 µM [rising, single point]. Further, the half-maximal activity concentration (AC50) under setting [2] was 0.00461 µM [falling, full curve, poor fit].

Turning to `N#CC1=C(N)Oc2n[nH]c(-c3ccccn3)c2C1c1c(F)cccc1Cl` (stereo not drawn), the cell number change was determined as 57.3%. The AC50 under setting [1] was 0.92 µM [rising, full curve]. Also, the AC50 under setting [2] was 1.16 µM [rising, full curve].

Consider `Cc1nc2ccc(NC(=O)CCS(=O)(=O)c3ccc(Cl)cc3)cc2s1`, for which the cell number change turned out to be 8.1%.

Turning to `Cc1cccc(-c2nnc3n2N=C(c2ccc(Br)cc2)CS3)c1`, the concentration at half-maximal activity (AC50) under setting [2] was 0.517 µM [rising, full curve].

With `NS(=O)(=O)c1ccc(CCNC(=O)c2ccc(=O)[nH]c2)cc1`, the cell number change turned out to be 15.1%.

As to `Cc1cc(OCc2cc(C(=O)N(C)C3CCOC3)no2)cc(C)c1Cl` (stereo not drawn), the cell number change is -24.1%.

As to `O=C(NCc1ccc(F)cc1)c1ccc(N2CCc3ccccc32)c([N+](=O)[O-])c1`, the cell number change is -37.2%. Moreover, the concentration at half-maximal activity (AC50) under setting [1] was 29.1 µM [falling, single point]. For the same compound, under setting [2], the AC50 is 29.1 µM [falling, single point].

Regarding `CCOC(=O)C1CCN(C(=O)CC(C)c2ccccc2)CC1` (stereo not drawn), the cell number change is -7.21%. In addition, the AC50 under setting [2] is 18.4 µM [falling, partial curve, poor fit].

Regarding `CC(=O)NC(CC(=O)NC1CCCc2ccccc21)c1ccccc1` (stereo not drawn), the cell number change stood at 5.24%.

With `COc1cc(O)c2c(=O)c(-c3ccc(O[C@@H]4O[C@H](CO)[C@@H](O)[C@H](O)[C@H]4O)cc3)coc2c1`, the cell number change was -26.1%. For the same compound, the AC50 under setting [2] is 29.1 µM [falling, single point].

As for `CC1=C(C(N)=O)C(c2ccccc2F)NC(=O)N1` (stereo not drawn), the cell number change is -10.8%.

With `COc1cc(-c2nn3c(-c4cccnc4)nnc3s2)cc(OC)c1OC`, the cell number change was 7.39%.

Turning to `O=C1c2[nH]nc(-c3ccccc3O)c2C(c2ccc(F)cc2)N1CC1CCCO1` (stereo not drawn), the cell number change is -44.6%. Moreover, the concentration at half-maximal activity (AC50) under setting [1] was 32.6 µM [falling, single point].

`Cc1ccsc1C(=O)c1sccc1C`: the cell number change is -9.73%. Under setting [2], the concentration at half-maximal activity (AC50) was 0.116 µM [falling, full curve, poor fit].

Take `CC(NCC(O)COCc1cccs1)C1CC2CCC1C2` (stereo not drawn): the cell number change is -4.14%. For the same compound, the concentration at half-maximal activity (AC50) under setting [1] was 0.092 µM [rising, full curve, poor fit].

As to `Cc1sc2ncnc(N3CCCC(C)C3)c2c1C` (stereo not drawn), the cell number change amounted to 6.89%.

`COc1ccccc1N1C(=S)N=C(Nc2c(C)cccc2C)C12CCCC2`: the cell number change is 1.01%. For the same compound, under setting [2], the AC50 was 1.84 µM [rising, full curve, poor fit].

Consider `CC(=O)Nc1cccc(C2=CC(c3ccco3)n3ncnc3N2)c1` (stereo not drawn), for which the cell number change is -27.7%. For the same compound, the AC50 under setting [1] is 1.46 µM [rising, partial curve].

For `Cn1cc(S(=O)(=O)N2CCCC2)cc1C(=O)NCc1ccc(F)cc1`, the cell number change amounted to 7.49%. Besides, the AC50 under setting [2] was 16.4 µM [rising, partial curve].

Consider `CC1(C)CC(OC(=O)c2ccccc2)CC(C)(C)N1`, for which the cell number change is -19%. Further, the concentration at half-maximal activity (AC50) under setting [1] was 0.092 µM [falling, full curve, poor fit]. Under setting [2], the AC50 is 4.11 µM [falling, full curve].

For `COc1ccc(NC(=O)NCCCN2CCN(c3cc(C)ccc3C)CC2)cc1`, the cell number change turned out to be 32.3%. For the same compound, the half-maximal activity concentration (AC50) under setting [1] was 11.6 µM [rising, single point]. Moreover, the concentration at half-maximal activity (AC50) under setting [2] is 0.206 µM [falling, full curve, poor fit].

Turning to `Cc1cc(Cc2cc(C)c(N)cc2C)c(C)cc1N`, the cell number change came out at 109%. In addition, the half-maximal activity concentration (AC50) under setting [1] is 0.146 µM [rising, full curve]. The concentration at half-maximal activity (AC50) under setting [2] was 0.146 µM [rising, full curve].

Regarding `CC(C)CCSc1nc2[nH]ncc2c(=O)[nH]1`, the cell number change was -53.1%. Moreover, under setting [1], the AC50 was 0.13 µM [falling, full curve]. Besides, the AC50 under setting [2] is 23.1 µM [falling, single point].

Regarding `Cc1cc(C)c(S(=O)(=O)Nn2cnnc2)c(C)c1`, the cell number change was -43.3%. Besides, under setting [1], the AC50 was 8.2 µM [falling, partial curve]. Under setting [2], the AC50 is 16.4 µM [falling, single point].

In the case of `COC(=O)c1cc(Br)ccc1-c1ccc(/C=N/n2nnnc2N)o1`, the half-maximal activity concentration (AC50) was 2.91 µM [rising, partial curve] under setting [1] and 6.51 µM [rising, partial curve] under setting [2].

For the compound `COc1cc2[nH]c(=O)n(CCC(=O)N3CCN(Cc4ccccc4)CC3)c(=O)c2cc1OC`, the cell number change was 83.4%. In addition, the half-maximal activity concentration (AC50) under setting [1] is 25.9 µM [rising, single point]. Besides, under setting [2], the half-maximal activity concentration (AC50) is 29.1 µM [rising, single point].

For `COc1ccc(NC(=O)c2[nH]c(C)c(C(C)=O)c2C)cc1S(=O)(=O)Nc1ccc(Br)cc1`, the cell number change is -27.9%. The AC50 under setting [2] is 16.4 µM [falling, single point].

Take `O=C(O)Cc1sc(NCCc2ccccc2)nc1-c1ccc(F)cc1`: the cell number change stood at 16%.

Regarding `CCOC(=O)C1=C(C)C(c2ccccc2)NC(=S)N1` (stereo not drawn), the cell number change was -6.13%. Under setting [1], the AC50 is 1.3 µM [rising, full curve]. In addition, the half-maximal activity concentration (AC50) under setting [2] is 2.31 µM [rising, partial curve].

Take `CC(=O)N/C(N)=N/c1nc2cc([N+](=O)[O-])ccc2o1`: the cell number change was determined as 30.6%. Also, under setting [1], the AC50 was 6.51 µM [rising, full curve, poor fit].

With `O=C(NCC1CCCO1)c1ccc2c(c1)N(Cc1ccc(F)cc1)CCS2` (stereo not drawn), the cell number change is -4.89%. Under setting [2], the AC50 is 29.1 µM [falling, single point].
